Reference: patent US6365620B2, “Trifluoromethylpyrrolcarboxamides” (Syngenta Crop Protection, Inc., priority 1998, dated 2002)
Some results were stated once for a whole list of compounds, not compound by compound. For at least one compound, name, drawing or mass did not settle the structure.

Assays:
Format in all cases: in vivo
Septoria nodorum = assay: Action against Septoria nodorum/wheat (Septoria leaf spot on wheat); settings: wheat plants cv. Arina, 0.02% active ingredient, spray, assessed 11 days after inoculation
Podosphaera leucotricha = assay: Action against Podosphaera leucotricha/apple (powdery mildew on apple); settings: apple seedlings cv. McIntosh, 0.002% active ingredient, spray, assessed after 12 days incubation
Pyrenophora teres = assay: Action against Pyrenophora teres/barley (net blotch on barley); settings: barley plants cv. Express, 0.002% active ingredient, spray, assessed 4 days after inoculation
Botrytis cinerea [1] = assay: Action against Botrytis cinerea/apple (Botrytis on apple fruits); settings: apple fruit cv. Golden Delicious, 30 μl droplets of 0.002% active ingredient in drilled holes, assessed after 7 days
Venturia inaequalis = assay: Action against Venturia inaequalis/apple (scab on apple); settings: apple seedlings cv. McIntosh, 0.02% active ingredient, spray
Botrytis cinerea [2] = assay: Action against Botrytis cinerea/grape (Botrytis on grapes); settings: grape seedlings cv. Gutedel, 0.002% active ingredient, spray, assessed after 4 days incubation
Erysiphe graminis = assay: Action against Erysiphe graminis/barley (powdery mildew on barley); settings: barley plants cv. Express, 0.02% active ingredient, spray, assessed after 6 days incubation
Botrytis cinerea [3] = assay: Action against Botrytis cinerea/tomato (Botrytis on tomatoes); settings: tomato plants cv. Roter Gnom, 0.002% active ingredient, spray, assessed after 4 days incubation

Row | Compound | infestation (Septoria nodorum) | infestation (Podosphaera leucotricha) | infestation (Pyrenophora teres) | infestation (Botrytis cinerea [1]) | infestation (Venturia inaequalis) | infestation (Botrytis cinerea [2]) | infestation (Erysiphe graminis) | infestation (Botrytis cinerea [3])
1 | Cn1cc(C(=O)Nc2ccccc2-c2ccccc2)c(C(F)(F)F)c1 [Compound 1.01, N-(2-biphenylyl)-1-methyl-4-trifluoromethylpyrrol-3-carboxamide] | < 20% | < 20% | < 20% | < 10% | < 20% | < 10% | < 20% | < 10%
2 | Cn1cc(C(=O)Nc2ccsc2-c2ccc(F)cc2)c(C(F)(F)F)c1 [Compound 1.04] | < 20% | < 20% | < 20% | < 10% | < 20% | < 10% | < 20% | < 10%
3 | Cn1cc(C(=O)Nc2ccsc2-c2ccc(Cl)cc2)c(C(F)(F)F)c1 [Compound 1.05] | < 20% | < 20% | < 20% | < 10% | < 20% | < 10% | < 20% | < 10%
4 | Cn1cc(C(=O)Nc2ccsc2-c2ccc(-c3ccccc3)cc2)c(C(F)(F)F)c1 [Compound 1.30] | < 20% | < 20% | < 20% | < 10% | < 20% | < 10% | < 20% | < 10%
5 | Cn1cc(C(=O)Nc2ccccc2-c2ccc3c(c2)OC(F)(F)O3)c(C(F)(F)F)c1 [Compound 1.39] | < 20% | < 20% | < 20% | < 10% | < 20% | < 10% | < 20% | < 10%
6 | Cn1cc(C(=O)Nc2ccccc2-c2cccc3c2OC(F)(F)O3)c(C(F)(F)F)c1 [Compound 1.40] | < 20% | < 20% | < 20% | < 10% | < 20% | < 10% | < 20% | < 10%
7 | Cn1cc(C(=O)Nc2ccccc2-c2cccc(C(F)(F)F)c2)c(C(F)(F)F)c1 [Compound 1.42] | < 20% | < 20% | < 20% | < 10% | < 20% | < 10% | < 20% | < 10%
8 | Cn1cc(C(=O)Nc2ccccc2Oc2ccc(Cl)cc2)c(C(F)(F)F)c1 [Compound 1.71] | < 20% | < 20% | < 20% | < 10% | < 20% | < 10% | < 20% | < 10%
9 | Cc1c(C(F)(F)F)c(C(=O)Nc2ccsc2-c2ccc(Cl)cc2)cn1C [Compound 2.05] | < 20% | < 20% | < 20% | < 10% | < 20% | < 10% | < 20% | < 10%
10 | Cc1c(C(F)(F)F)c(C(=O)Nc2ccccc2Oc2ccc(Cl)cc2)cn1C [Compound 2.71] | < 20% | < 20% | < 20% | < 10% | < 20% | < 10% | < 20% | < 10%
11 | COCn1cc(C(=O)Nc2ccccc2Oc2ccc(Cl)cc2)c(C(F)(F)F)c1 [Compound 4.71] | < 20% | < 20% | < 20% | < 10% | < 20% | < 10% | < 20% | < 10%
12 | N#Cn1cc(C(=O)Nc2ccccc2Oc2ccc(Cl)cc2)c(C(F)(F)F)c1 [Compound 5.71] | < 20% | < 20% | < 20% | < 10% | < 20% | < 10% | < 20% | < 10%
13 | CC(=O)n1cc(C(=O)Nc2ccsc2-c2ccc(F)cc2)c(C(F)(F)F)c1 [Compound 8.04] | < 20% | < 20% | < 20% | < 10% | < 20% | < 10% | < 20% | < 10%
14 | CC(=O)n1cc(C(=O)Nc2ccccc2Oc2ccc(Cl)cc2)c(C(F)(F)F)c1 [Compound 8.71] | < 20% | < 20% | < 20% | < 10% | < 20% | < 10% | < 20% | < 10%
